# Some of the results follow.
# The chains behind the UniProt entries cited, without tags or fusion partners. Where a name states a change or a piece, a line headed by the entry shows the natural chain unless it says otherwise.
# UniProt Q9NUW8, whole entry, looked up: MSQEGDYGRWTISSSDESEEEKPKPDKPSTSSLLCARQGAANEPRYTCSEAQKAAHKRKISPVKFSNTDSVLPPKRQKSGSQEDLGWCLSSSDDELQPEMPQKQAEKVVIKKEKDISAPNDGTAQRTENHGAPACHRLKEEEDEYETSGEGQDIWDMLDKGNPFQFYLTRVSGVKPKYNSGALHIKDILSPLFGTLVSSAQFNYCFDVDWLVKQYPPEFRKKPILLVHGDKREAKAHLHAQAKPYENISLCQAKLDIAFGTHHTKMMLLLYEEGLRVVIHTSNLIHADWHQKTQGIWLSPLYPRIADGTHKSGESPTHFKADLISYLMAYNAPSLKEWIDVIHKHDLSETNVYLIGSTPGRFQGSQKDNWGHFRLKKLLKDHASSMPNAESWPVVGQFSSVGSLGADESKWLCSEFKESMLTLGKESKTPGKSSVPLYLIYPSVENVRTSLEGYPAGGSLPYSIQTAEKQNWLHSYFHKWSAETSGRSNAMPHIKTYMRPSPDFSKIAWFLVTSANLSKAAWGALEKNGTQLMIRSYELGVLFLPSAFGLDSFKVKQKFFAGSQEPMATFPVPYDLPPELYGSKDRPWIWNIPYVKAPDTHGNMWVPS
# UniProt Q6N022: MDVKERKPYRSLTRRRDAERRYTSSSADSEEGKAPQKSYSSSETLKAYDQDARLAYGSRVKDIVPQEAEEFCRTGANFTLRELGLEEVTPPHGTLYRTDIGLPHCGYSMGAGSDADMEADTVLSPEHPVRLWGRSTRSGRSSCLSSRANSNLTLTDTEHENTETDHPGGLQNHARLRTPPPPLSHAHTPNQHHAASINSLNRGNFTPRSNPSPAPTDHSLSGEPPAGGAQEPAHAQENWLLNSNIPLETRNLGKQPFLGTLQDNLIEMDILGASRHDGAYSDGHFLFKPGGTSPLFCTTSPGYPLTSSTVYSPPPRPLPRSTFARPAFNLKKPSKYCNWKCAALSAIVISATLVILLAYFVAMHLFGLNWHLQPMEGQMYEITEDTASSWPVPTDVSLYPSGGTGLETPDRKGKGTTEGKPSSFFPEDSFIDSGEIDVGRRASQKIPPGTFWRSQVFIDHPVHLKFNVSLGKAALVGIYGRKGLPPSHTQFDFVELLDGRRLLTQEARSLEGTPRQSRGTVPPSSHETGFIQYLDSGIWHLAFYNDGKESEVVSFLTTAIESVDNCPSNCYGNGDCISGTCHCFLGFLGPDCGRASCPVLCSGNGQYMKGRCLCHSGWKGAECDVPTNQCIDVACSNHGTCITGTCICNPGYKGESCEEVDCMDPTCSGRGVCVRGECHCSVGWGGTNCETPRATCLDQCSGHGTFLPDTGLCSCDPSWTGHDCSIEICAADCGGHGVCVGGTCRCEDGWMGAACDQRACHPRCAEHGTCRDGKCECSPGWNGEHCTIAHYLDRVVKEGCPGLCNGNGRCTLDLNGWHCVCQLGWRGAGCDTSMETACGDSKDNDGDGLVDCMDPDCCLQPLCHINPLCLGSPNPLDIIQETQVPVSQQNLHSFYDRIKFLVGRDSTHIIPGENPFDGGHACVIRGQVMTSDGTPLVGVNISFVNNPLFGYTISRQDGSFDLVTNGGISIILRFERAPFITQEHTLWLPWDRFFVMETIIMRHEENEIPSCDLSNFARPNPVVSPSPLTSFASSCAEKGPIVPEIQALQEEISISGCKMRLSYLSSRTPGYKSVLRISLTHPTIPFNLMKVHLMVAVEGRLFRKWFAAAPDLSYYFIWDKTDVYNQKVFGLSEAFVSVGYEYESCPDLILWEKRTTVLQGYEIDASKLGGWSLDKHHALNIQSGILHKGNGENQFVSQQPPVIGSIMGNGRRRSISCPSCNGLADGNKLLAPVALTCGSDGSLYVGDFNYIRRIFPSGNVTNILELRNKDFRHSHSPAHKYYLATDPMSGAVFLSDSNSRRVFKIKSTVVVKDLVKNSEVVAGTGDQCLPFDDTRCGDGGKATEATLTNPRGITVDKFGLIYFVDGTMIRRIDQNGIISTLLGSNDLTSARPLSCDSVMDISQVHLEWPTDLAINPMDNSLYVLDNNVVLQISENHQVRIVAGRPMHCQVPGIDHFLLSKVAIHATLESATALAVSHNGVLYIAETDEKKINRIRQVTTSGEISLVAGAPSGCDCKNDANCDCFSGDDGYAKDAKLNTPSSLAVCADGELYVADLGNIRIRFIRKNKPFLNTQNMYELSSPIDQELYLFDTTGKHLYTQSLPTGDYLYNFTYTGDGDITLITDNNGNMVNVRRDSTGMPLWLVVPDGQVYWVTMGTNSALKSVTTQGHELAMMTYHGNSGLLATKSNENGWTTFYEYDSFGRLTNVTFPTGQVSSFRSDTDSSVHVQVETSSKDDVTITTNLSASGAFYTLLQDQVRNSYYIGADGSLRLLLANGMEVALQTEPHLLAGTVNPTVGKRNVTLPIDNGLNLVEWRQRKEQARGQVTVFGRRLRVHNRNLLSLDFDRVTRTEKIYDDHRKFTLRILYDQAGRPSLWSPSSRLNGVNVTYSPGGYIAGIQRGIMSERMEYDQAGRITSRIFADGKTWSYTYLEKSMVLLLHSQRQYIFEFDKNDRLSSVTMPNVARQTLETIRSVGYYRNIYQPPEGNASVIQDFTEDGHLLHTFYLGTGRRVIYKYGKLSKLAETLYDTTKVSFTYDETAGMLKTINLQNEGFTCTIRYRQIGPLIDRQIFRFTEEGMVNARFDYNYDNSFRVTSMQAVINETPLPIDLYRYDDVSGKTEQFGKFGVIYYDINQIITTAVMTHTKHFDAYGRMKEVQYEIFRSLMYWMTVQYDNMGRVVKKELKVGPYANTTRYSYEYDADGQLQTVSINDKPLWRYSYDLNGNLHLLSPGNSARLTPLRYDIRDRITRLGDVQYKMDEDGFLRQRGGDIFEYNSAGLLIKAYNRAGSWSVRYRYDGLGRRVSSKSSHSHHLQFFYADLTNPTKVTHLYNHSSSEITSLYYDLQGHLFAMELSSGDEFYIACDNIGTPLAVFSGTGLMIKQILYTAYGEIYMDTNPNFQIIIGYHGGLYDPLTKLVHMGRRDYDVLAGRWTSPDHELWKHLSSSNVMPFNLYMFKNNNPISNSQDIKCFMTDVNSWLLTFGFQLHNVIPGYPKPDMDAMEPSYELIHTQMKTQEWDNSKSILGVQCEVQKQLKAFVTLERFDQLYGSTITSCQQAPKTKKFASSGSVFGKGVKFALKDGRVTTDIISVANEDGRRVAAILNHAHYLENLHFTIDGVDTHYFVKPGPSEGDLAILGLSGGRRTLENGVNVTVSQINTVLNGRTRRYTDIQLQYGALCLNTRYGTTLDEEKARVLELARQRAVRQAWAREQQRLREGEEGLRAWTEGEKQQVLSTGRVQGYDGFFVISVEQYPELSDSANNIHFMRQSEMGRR
# UniProt Q9P0N9: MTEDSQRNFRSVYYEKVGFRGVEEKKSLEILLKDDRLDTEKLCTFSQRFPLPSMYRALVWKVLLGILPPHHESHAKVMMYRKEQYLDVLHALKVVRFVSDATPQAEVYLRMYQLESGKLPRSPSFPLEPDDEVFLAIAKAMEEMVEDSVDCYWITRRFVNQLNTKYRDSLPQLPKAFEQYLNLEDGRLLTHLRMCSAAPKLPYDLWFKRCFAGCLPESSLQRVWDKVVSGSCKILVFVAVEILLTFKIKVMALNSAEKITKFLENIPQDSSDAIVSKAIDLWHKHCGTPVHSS
# UniProt Q9H7E2: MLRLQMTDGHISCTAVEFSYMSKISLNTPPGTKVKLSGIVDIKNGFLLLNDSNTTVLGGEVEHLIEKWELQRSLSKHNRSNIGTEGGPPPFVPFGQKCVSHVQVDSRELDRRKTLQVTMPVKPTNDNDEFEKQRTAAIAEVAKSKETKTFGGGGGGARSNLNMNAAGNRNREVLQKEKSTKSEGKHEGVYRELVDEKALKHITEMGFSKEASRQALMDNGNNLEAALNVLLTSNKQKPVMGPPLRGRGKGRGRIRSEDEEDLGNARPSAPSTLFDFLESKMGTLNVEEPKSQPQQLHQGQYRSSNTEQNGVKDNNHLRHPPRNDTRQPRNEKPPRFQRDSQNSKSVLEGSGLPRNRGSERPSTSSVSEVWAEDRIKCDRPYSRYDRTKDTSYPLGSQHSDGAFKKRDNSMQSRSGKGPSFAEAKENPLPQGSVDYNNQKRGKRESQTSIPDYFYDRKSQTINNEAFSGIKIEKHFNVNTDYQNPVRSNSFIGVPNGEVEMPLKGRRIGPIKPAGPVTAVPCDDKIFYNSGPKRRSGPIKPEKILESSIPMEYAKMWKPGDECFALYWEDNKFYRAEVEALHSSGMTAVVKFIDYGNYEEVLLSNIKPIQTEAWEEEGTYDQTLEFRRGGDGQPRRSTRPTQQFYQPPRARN
# UniProt B5MCY1: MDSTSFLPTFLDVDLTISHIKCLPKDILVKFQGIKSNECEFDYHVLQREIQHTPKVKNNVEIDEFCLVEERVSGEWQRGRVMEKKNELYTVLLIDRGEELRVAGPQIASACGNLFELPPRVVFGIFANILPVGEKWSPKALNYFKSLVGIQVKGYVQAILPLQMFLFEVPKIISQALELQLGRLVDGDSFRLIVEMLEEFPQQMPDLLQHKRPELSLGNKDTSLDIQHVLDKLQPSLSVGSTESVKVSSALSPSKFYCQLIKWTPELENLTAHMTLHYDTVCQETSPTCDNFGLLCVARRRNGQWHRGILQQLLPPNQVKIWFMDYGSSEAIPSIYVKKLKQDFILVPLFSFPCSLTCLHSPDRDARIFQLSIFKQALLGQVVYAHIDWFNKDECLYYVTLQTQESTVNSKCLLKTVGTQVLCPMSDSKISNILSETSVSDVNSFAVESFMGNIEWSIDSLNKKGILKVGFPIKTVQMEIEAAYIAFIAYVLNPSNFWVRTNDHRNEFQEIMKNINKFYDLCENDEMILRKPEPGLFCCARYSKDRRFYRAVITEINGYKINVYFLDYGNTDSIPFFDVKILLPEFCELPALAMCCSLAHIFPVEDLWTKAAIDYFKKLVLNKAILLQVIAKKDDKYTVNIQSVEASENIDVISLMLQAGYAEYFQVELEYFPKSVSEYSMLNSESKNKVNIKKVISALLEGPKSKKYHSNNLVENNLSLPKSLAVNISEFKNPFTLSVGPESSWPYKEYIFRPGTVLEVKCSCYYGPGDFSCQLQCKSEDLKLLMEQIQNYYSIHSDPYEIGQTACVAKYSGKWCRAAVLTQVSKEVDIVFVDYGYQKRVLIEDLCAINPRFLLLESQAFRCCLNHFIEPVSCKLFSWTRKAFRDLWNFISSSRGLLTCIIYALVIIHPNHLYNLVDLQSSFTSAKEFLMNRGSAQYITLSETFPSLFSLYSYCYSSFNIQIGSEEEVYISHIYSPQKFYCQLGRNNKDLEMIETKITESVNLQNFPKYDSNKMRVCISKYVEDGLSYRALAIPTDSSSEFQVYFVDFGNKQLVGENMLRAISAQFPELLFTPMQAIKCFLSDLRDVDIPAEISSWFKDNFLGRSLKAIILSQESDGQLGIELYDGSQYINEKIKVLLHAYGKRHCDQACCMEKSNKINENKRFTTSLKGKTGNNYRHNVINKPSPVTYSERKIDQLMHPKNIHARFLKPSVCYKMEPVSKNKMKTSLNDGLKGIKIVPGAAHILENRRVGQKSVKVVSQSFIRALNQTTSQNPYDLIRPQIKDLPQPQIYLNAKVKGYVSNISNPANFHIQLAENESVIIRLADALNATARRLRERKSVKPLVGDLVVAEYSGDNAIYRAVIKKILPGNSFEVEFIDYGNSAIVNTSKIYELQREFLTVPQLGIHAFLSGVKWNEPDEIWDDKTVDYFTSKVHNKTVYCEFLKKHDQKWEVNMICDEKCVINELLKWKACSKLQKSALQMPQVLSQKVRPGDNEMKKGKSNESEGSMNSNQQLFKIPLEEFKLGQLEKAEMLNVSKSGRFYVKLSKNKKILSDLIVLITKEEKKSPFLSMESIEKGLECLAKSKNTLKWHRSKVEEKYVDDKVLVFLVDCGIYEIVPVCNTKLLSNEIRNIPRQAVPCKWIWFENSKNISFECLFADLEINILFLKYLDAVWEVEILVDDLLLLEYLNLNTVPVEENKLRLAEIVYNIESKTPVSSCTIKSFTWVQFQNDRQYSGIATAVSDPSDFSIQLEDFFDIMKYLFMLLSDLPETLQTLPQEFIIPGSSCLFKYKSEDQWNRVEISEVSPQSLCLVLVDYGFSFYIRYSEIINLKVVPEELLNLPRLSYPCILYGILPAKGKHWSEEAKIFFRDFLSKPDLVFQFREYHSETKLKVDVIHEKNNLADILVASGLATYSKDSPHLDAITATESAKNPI
# UniProt Q9BU02: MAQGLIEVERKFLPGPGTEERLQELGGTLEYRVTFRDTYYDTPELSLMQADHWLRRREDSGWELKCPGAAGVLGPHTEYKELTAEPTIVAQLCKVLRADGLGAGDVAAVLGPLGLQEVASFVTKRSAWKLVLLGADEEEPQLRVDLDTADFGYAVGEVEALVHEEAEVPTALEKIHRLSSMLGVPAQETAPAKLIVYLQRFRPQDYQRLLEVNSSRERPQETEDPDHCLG
# Tests used:
# Test in all cases: log2 fold change, soluble protein after heating vs DMSO (PISA); higher = thermal stabilisation; K562 cells, 10 uM, 30 min; active = over 0.2 and 3.5 SD of the protein, either way, in both replicates (recomputed)
# [1] = compound: Cn1cc(-c2ccc3c(c2)CCN3C(=O)Cc2cccc(C(F)(F)F)c2)c2c(N)ncnc21
# Summary of the method: (§1)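 K562 cells at 2×10^6 cells/mL were treated for 30 min with 10 μM compound, and aliquots were heated for 3 min over 48°C-58°C before pooling. Extraction used PBS with 0.5% NP-40 at 4°C, and soluble protein was the supernatant after 21,000xg for 90 min, measured by TMTpro 16plex LC-MS/MS with channel sums equalised. Thermal stability values, relative to control samples and from duplicates, are log2 fold changes.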
# bafetinib = compound: Cc1ccc(NC(=O)c2ccc(CN3CC[C@H](N(C)C)C3)c(C(F)(F)F)c2)cc1Nc1nccc(-c2cncnc2)n1 [bafetinib]
# Summary of the method: as §1
# mubritinib = compound: FC(F)(F)c1ccc(/C=C/c2nc(COc3ccc(CCCCn4ccnn4)cc3)co2)cc1 [mubritinib]
# Summary of the method: as §1
# [2] = compound: Cc1cccc(CC(=O)N2CCc3c2ccc(-c2cn(C)c4ncnc(N)c24)c3F)n1
# Summary of the method: as §1
# dasatinib = compound: Cc1nc(Nc2ncc(C(=O)Nc3c(C)cccc3Cl)s2)cc(N2CCN(CCO)CC2)n1 [dasatinib]
# Summary of the method: as §1
# tipifarnib = compound: Cn1cncc1[C@@](N)(c1ccc(Cl)cc1)c1ccc2c(c1)c(-c1cccc(Cl)c1)cc(=O)n2C [tipifarnib]
# Summary of the method: as §1
# nilotinib = compound: Cc1cn(-c2cc(NC(=O)c3ccc(C)c(Nc4nccc(-c5cccnc5)n4)c3)cc(C(F)(F)F)c2)cn1 [nilotinib]
# Summary of the method: as §1
# [3] = compound: Cc1nc(Nc2n[nH]c3c2CN(C(=O)N[C@H](CN(C)C)c2ccccc2)C3(C)C)c2sccc2n1
# Summary of the method: as §1
# [4] = compound: Cc1ncc(-c2ccnc(Nc3ccc(S(C)(=O)=O)cc3)n2)n1C(C)C
# Summary of the method: as §1
# [5] = compound: Cn1cc(-c2ccc3nnc(C(F)(F)c4ccc5ncccc5c4)n3n2)cn1
# Summary of the method: as §1
target,measurement,setting,value
TDP1 (UniProt Q9NUW8),log2 fold change,[1],inactive: -0.1
TFDP2 (UniProt Q14188),log2 fold change,bafetinib,inactive: -0.049
same,log2 fold change,[1],inactive: -0.214
same,log2 fold change,mubritinib,inactive: 0.06
TENM4 (UniProt Q6N022),log2 fold change,[2],inactive: 0.024
same,log2 fold change,dasatinib,inactive: 0.027
same,log2 fold change,[1],inactive: 0.049
same,log2 fold change,tipifarnib,inactive: 0.005
TBC1D7 (UniProt Q9P0N9),log2 fold change,bafetinib,inactive: 0.048
same,log2 fold change,tipifarnib,inactive: 0.065
TGDS (UniProt O95455),log2 fold change,[2],inactive: -0.166
same,log2 fold change,nilotinib,inactive: 0.052
same,log2 fold change,[3],inactive: -0.034
same,log2 fold change,dasatinib,inactive: -0.046
same,log2 fold change,[4],inactive: -0.021
same,log2 fold change,[1],inactive: 0.206
same,log2 fold change,mubritinib,inactive: 0.071
TCOF1 isoform 3 (UniProt Q13428),log2 fold change,[2],inactive: -0.005
same,log2 fold change,[5],inactive: -0.419
TCAF2 (UniProt A6NFQ2),log2 fold change,nilotinib,inactive: -0.355
same,log2 fold change,[3],inactive: -0.205
same,log2 fold change,[4],inactive: 0.076
same,log2 fold change,[1],inactive: -0.318
same,log2 fold change,[5],inactive: -0.068
TBC1D2B (UniProt Q9UPU7),log2 fold change,bafetinib,inactive: -0.012
same,log2 fold change,nilotinib,inactive: -0.007
same,log2 fold change,[3],inactive: 0.091
same,log2 fold change,dasatinib,inactive: 0.136
same,log2 fold change,[4],inactive: -0.067
same,log2 fold change,mubritinib,inactive: 0.052
TBC1D9 (UniProt Q6ZT07),log2 fold change,bafetinib,inactive: -0.271
same,log2 fold change,dasatinib,inactive: -0.235
TCOF1 isoform 6 (UniProt Q13428),log2 fold change,bafetinib,inactive: 0.137
same,log2 fold change,nilotinib,inactive: -0.102
same,log2 fold change,[3],inactive: 0.14
same,log2 fold change,[4],inactive: -0.033
same,log2 fold change,[1],inactive: 0.07
same,log2 fold change,[5],inactive: -0.061
same,log2 fold change,mubritinib,inactive: -0.091
TDRD3 isoform 3 (UniProt Q9H7E2),log2 fold change,bafetinib,inactive: 0.023
same,log2 fold change,tipifarnib,inactive: 0.222
same,log2 fold change,mubritinib,inactive: -0.041
TLE3 (UniProt Q04726),log2 fold change,bafetinib,inactive: -0.165
same,log2 fold change,[1],inactive: 0.094
TBCK (UniProt Q8TEA7),log2 fold change,[2],inactive: -0.032
same,log2 fold change,nilotinib,inactive: 0.005
same,log2 fold change,[3],inactive: 0.181
same,log2 fold change,dasatinib,inactive: -0.097
same,log2 fold change,[4],inactive: -0.126
same,log2 fold change,tipifarnib,inactive: 0.141
THAP12 (UniProt O43422),log2 fold change,[2],inactive: 0.215
same,log2 fold change,nilotinib,inactive: -0.131
same,log2 fold change,[3],inactive: -0.038
same,log2 fold change,[4],inactive: 0.125
same,log2 fold change,[1],inactive: -0.19
same,log2 fold change,[5],inactive: -0.12
TC2N (UniProt Q8N9U0),log2 fold change,nilotinib,inactive: 0.052
same,log2 fold change,[3],active: -0.71
same,log2 fold change,dasatinib,inactive: 0.068
same,log2 fold change,[4],inactive: -0.024
same,log2 fold change,[5],inactive: -0.153
same,log2 fold change,mubritinib,inactive: 0.176
TDRD15 (UniProt B5MCY1),log2 fold change,[2],inactive: -0.25
same,log2 fold change,dasatinib,inactive: 0.213
same,log2 fold change,[1],inactive: -0.09
same,log2 fold change,[5],inactive: 0.125
same,log2 fold change,mubritinib,inactive: 0.252
TCEAL4 isoform 2 (UniProt Q96EI5),log2 fold change,[2],inactive: -0.044
same,log2 fold change,dasatinib,inactive: -0.222
same,log2 fold change,[5],inactive: 0.066
same,log2 fold change,tipifarnib,inactive: -0.017
TET2 (UniProt Q6N021),log2 fold change,nilotinib,inactive: 0.071
same,log2 fold change,[3],inactive: -0.103
same,log2 fold change,[4],inactive: -0.027
same,log2 fold change,mubritinib,inactive: -0.028
TCTN3 (UniProt Q6NUS6),log2 fold change,bafetinib,inactive: -0.022
same,log2 fold change,nilotinib,inactive: 0.015
same,log2 fold change,[3],inactive: -0.045
same,log2 fold change,[4],inactive: -0.178
same,log2 fold change,tipifarnib,inactive: 0.105
TESMIN (UniProt Q9Y4I5),log2 fold change,nilotinib,inactive: -0.165
same,log2 fold change,[3],inactive: 0.015
same,log2 fold change,[4],inactive: 0.081
THEMIS2 (UniProt Q5TEJ8),log2 fold change,[2],inactive: -0.124
same,log2 fold change,nilotinib,inactive: 0.144
same,log2 fold change,[3],inactive: 0.21
same,log2 fold change,dasatinib,inactive: 0.032
same,log2 fold change,[4],inactive: -0.138
same,log2 fold change,[5],inactive: 0.047
same,log2 fold change,tipifarnib,inactive: -0.014
TCEAL1 isoform 2 (UniProt Q15170),log2 fold change,[2],inactive: -0.049
same,log2 fold change,[1],inactive: -0.095
same,log2 fold change,[5],inactive: 0.039
same,log2 fold change,tipifarnib,inactive: 0.147
TCEAL8 (UniProt Q8IYN2),log2 fold change,[2],inactive: 0.043
same,log2 fold change,nilotinib,inactive: 0.012
same,log2 fold change,[3],inactive: 0.026
same,log2 fold change,[4],inactive: -0.086
same,log2 fold change,mubritinib,inactive: -0.08
THTPA (UniProt Q9BU02),log2 fold change,bafetinib,inactive: -0.03
same,log2 fold change,dasatinib,inactive: -0.076
same,log2 fold change,[1],inactive: 0.018
same,log2 fold change,[5],inactive: -0.021
same,log2 fold change,tipifarnib,inactive: -0.023
same,log2 fold change,mubritinib,inactive: 0.104
TFE3 (UniProt P19532),log2 fold change,bafetinib,inactive: -0.249
same,log2 fold change,[5],inactive: 0.22
TCF4 isoform 3 (UniProt P15884),log2 fold change,[2],inactive: -0.121
same,log2 fold change,dasatinib,inactive: -0.008
same,log2 fold change,[1],inactive: -0.023
same,log2 fold change,tipifarnib,inactive: -0.029
TLCD3A (UniProt Q8TBR7),log2 fold change,[2],inactive: -0.038
same,log2 fold change,dasatinib,inactive: 0.184
same,log2 fold change,tipifarnib,inactive: 0.086
TEDC2 (UniProt Q7L2K0),log2 fold change,dasatinib,inactive: -0.122
TDRD7 (UniProt Q8NHU6),log2 fold change,[2],inactive: 0.081
same,log2 fold change,dasatinib,inactive: 0.16
same,log2 fold change,[1],inactive: 0.019
same,log2 fold change,[5],inactive: -0.008
same,log2 fold change,mubritinib,inactive: 0.34
TIFA (UniProt Q96CG3),log2 fold change,[2],inactive: 0.009
same,log2 fold change,[1],inactive: 0.243
same,log2 fold change,tipifarnib,inactive: 0.015
TCP11L1 (UniProt Q9NUJ3),log2 fold change,nilotinib,inactive: -0.22
same,log2 fold change,[3],inactive: 0.045
same,log2 fold change,dasatinib,inactive: -0.273
same,log2 fold change,[4],inactive: -0.055
same,log2 fold change,tipifarnib,inactive: -0.062
same,log2 fold change,mubritinib,inactive: 0.105
TBC1D25 (UniProt Q3MII6),log2 fold change,bafetinib,inactive: 0.188
same,log2 fold change,[1],inactive: -0.448
TCF3 isoform 2 (UniProt P15923),log2 fold change,[2],inactive: 0.067
same,log2 fold change,[1],inactive: 0.103
same,log2 fold change,[5],inactive: 0.095
THAP9 (UniProt Q9H5L6),log2 fold change,bafetinib,inactive: 0.191
same,log2 fold change,nilotinib,inactive: 0.03
same,log2 fold change,[3],inactive: -0.009
same,log2 fold change,dasatinib,inactive: -0.082
same,log2 fold change,[4],inactive: -0.04
same,log2 fold change,[1],inactive: 0.119
same,log2 fold change,[5],inactive: 0.072
same,log2 fold change,mubritinib,inactive: 0.17
TBC1D14 (UniProt Q9P2M4),log2 fold change,[2],inactive: -0.111
same,log2 fold change,[5],inactive: 0.063
same,log2 fold change,tipifarnib,inactive: -0.058
same,log2 fold change,mubritinib,inactive: 0.162
TBX1 isoform 3 (UniProt O43435),log2 fold change,nilotinib,inactive: -0.208
same,log2 fold change,[3],inactive: -0.18
same,log2 fold change,[4],inactive: -0.118
same,log2 fold change,tipifarnib,inactive: -0.128
TBC1D2 (UniProt Q9BYX2),log2 fold change,[2],inactive: 0.213
same,log2 fold change,mubritinib,inactive: -0.085
TCF25 (UniProt Q9BQ70),log2 fold change,[2],inactive: 0.038
same,log2 fold change,[1],inactive: -0.132
same,log2 fold change,[5],inactive: -0.104
same,log2 fold change,tipifarnib,inactive: 0.019
same,log2 fold change,mubritinib,inactive: -0.041

# Random excerpt: 5 records from the list.
target,measurement,setting,value
TBC1D2B (UniProt Q9UPU7),log2 fold change,bafetinib,inactive: -0.012
TCTN3 (UniProt Q6NUS6),log2 fold change,nilotinib,inactive: 0.015
TENM4 (UniProt Q6N022),log2 fold change,[2],inactive: 0.024
TGDS (UniProt O95455),log2 fold change,[4],inactive: -0.021
TIFA (UniProt Q96CG3),log2 fold change,[1],inactive: 0.243

# For convenience, some entries already given.
target,measurement,setting,value
TDRD15 (UniProt B5MCY1),log2 fold change,dasatinib,inactive: 0.213
same,log2 fold change,[1],inactive: -0.09
same,log2 fold change,[5],inactive: 0.125
